These results are taken from article PMC9065044.

Results are given in words; binding and its absence hold for the method and conditions named. Binding seen in cells or lysates may run through a third protein. A yes stands for co-enrichment or nearness to the bait. Other partners may have been found. Sequences can lack the tags named with a protein.

The target of this assay is T1, HA-POU6F1 (pCMV-HA-POU6F1) (human) (UniProt Q14863).
T1 sequence: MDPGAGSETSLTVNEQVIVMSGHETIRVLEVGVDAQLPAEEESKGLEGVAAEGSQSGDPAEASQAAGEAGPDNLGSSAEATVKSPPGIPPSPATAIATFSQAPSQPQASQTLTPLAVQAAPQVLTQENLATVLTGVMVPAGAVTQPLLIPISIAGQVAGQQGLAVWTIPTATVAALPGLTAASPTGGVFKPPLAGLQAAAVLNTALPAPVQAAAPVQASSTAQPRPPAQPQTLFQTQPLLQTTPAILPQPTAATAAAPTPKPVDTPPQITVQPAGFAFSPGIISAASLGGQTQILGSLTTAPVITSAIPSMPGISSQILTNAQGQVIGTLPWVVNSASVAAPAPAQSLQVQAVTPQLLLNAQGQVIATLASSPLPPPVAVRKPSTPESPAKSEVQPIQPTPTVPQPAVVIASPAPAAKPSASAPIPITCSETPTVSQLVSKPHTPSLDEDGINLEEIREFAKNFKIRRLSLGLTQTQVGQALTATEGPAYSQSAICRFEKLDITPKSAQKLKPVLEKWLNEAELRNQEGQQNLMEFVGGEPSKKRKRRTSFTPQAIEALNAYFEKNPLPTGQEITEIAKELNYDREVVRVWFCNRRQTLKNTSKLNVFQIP
The assay is described as follows: affinity purification with mass spectrometry; A549 and HEK293T cells transfected with pCMV-HA-POU6F1; extracts immunoprecipitated with HA antibody or IgG on protein A/G magnetic beads; MS analysis.

B1: Retinoid-related orphan receptor alpha (RORA), endogenous (protein, UniProt P35398 1-523)
chain: MESAPAAPDPAASEPGSSGADAAAGSRETPLNQESARKSEPPAPVRRQSYSSTSRGISVTKKTHTSQIEIIPCKICGDKSSGIHYGVITCEGCKGFFRRSQQSNATYSCPRQKNCLIDRTSRNRCQHCRLQKCLAVGMSRDAVKFGRMSKKQRDSLYAEVQKHRMQQQQRDHQQQPGEAEPLTPTYNISANGLTELHDDLSNYIDGHTPEGSKADSAVSSFYLDIQPSPDQSGLDINGIKPEPICDYTPASGFFPYCSFTNGETSPTVSMAELEHLAQNISKSHLETCQYLREELQQITWQTFLQEEIENYQNKQREVMWQLCAIKITEAIQYVVEFAKRIDGFMELCQNDQIVLLKAGSLEVVFIRMCRAFDSQNNTVYFDGKYASPDVFKSLGCEDFISFVFEFGKSLCSMHLTEDEIALFSAFVLMSADRSWLQEKVKIEKLQQKIQLALQHVLQKNHREDGILTKLICKVSTLRALCGRHTEKLMAFKAIYPDIVRLHFPPLYKELFTSEFEPAMQIDG
B1: the binding entry is recorded as “binds”.
